Results are given in words; binding and its absence hold for the method and conditions named. In cells and extracts the contact can be indirect. Here binding means that the protein was enriched with, or labelled near, the bait; the list need not be complete. Sequences can lack the tags named with a protein.

Sequences of proteins named here, by UniProt entry; tags and fusion partners are left off. Residues count along the entry.
UniProt P29844, residues 19-656: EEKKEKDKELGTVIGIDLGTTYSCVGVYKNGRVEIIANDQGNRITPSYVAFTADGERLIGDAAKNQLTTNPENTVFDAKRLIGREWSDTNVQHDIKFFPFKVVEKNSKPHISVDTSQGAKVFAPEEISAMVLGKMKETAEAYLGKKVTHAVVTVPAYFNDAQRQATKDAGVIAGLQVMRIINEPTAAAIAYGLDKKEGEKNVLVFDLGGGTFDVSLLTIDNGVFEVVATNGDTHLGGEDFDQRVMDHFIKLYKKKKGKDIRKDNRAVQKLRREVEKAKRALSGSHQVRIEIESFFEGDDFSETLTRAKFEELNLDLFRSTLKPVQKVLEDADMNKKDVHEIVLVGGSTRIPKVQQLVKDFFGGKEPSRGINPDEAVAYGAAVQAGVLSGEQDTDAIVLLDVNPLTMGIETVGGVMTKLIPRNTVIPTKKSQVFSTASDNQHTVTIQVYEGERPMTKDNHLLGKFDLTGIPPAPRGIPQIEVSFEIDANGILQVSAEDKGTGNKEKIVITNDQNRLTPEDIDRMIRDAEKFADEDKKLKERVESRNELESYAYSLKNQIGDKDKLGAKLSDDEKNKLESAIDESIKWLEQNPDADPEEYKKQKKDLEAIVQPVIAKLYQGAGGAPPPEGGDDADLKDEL

The target in the assay is T1, Drosophila adiponectin receptor, Myc-tagged (AdipoR-Myc), expressed ubiquitously in larvae (Drosophila) (UniProt Q9VCY8).
T1 sequence: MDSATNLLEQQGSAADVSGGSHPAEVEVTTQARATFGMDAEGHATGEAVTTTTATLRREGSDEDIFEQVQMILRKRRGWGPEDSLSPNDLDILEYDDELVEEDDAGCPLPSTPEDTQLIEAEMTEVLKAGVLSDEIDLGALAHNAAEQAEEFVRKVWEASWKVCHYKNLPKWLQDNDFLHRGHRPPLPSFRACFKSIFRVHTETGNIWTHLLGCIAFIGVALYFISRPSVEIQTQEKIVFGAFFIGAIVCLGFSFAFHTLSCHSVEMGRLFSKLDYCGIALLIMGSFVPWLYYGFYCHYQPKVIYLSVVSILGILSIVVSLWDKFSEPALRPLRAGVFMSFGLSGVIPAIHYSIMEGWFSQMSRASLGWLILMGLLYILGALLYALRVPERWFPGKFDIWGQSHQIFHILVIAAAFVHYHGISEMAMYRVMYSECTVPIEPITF
Briefly: affinity purification with mass spectrometry; anti-Myc immunoprecipitation (µMACS magnetic microbeads) of AdipoR-Myc from lysate of larvae expressing it ubiquitously; controls: wild-type larvae and Smo-myc; nanoLC-MS/MS, triplicates.

On to “glucose-regulated protein 78 (Grp78), endogenous in larvae (from UniProt P29844 19-656)”, for which the binding result was “binds”.

These data come from PMC8463608.
